The text below walks through data of PubChem BioAssay AID493014 (National Center for Advancing Translational Sciences (NCATS), 2011).

The nature of this experiment: qHTS Assay to Find Inhibitors of Chronic Active B-Cell Receptor Signaling. Conditions: ABC-DLBCL IkBa-CBG/CBR reporter, luminescence ratio (green luciferase fused to IkBa over red control in TMD8 lymphoma cells), 4 h. In a few lines:
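Cell line TMD8 (human ABC DLBCL), stably expressing tet-inducible CBG68-IkBa fusion and CBR; IMDM/0.5% FBS; cpd up to 46 uM; dox induction, 4 h, 37C/5% CO2; dual luminescence; green/red ratio; MG132 control.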
On the technique in general: Quantitative high-throughput screening tests each substance at several concentrations.

The mark [1] stands for this setting: measured here: CBR red luminescence, cell number.
[2] abbreviates: measured here: IkBa-CBG green luminescence.

The other results are listed elsewhere or left out. Further columns of the screen follow, without active or inactive calls. Most of these compounds were active or inconclusive in the main read-out, so they are no random draw. The note in brackets gives the kind of curve behind each potency; many fits are weak.

With `O=[N+]([O-])c1c(NCCO)cc(Sc2nc3ccccc3s2)c2nonc12`, the AC50 – broadly, the concentration giving half of the maximal activity seen – under setting [1] was 17.8 µM [falling, single point] and the AC50 under setting [2] was 35.5 µM [rising, partial curve, poor fit].
As to `O=C(c1ccc(Cl)c([N+](=O)[O-])c1)N(Cc1ccc(F)cc1)C1CCS(=O)(=O)C1` (stereo not given), under setting [1], the AC50 was 22.4 µM [falling, single point].
Still for that read-out and setting: the figure for `COc1ccc(COc2ccsc2C(=O)Nc2ccc(Cl)cc2)cc1` is 0.731 µM [rising, full curve, poor fit].
For `O=C(CN(Cc1ccccc1)S(=O)(=O)c1ccccc1)N/N=C/c1ccc2c(c1)OCO2`, under setting [1], the AC50 is 22.4 µM [falling, single point].
Same read-out and setting: the figure for `CCOc1ccc(C(=O)N/N=C/c2ccc(-c3ccc(S(=O)(=O)Nc4ncccn4)cc3)o2)cc1` is 5.8 µM [falling, full curve, poor fit]; for `Cc1nnc(NC(=O)C2CCN(S(=O)(=O)c3cc([N+](=O)[O-])ccc3Cl)CC2)o1` it is 2.06 µM [falling, partial curve, poor fit]; for `Cc1cc(C(=O)N(C)CC2CCCN(CCc3ccc(F)cc3)C2)c(C)o1` (stereo not given) it is 22.4 µM [rising, single point].
As for `Cc1ccc(-c2ccc(C(=O)O)[nH]2)cc1`, the AC50 under setting [1] was 0.447 µM [rising, full curve, poor fit].
Turning to `COc1ccc(/C(C)=N/NC(=O)c2nnn(-c3nonc3N)c2-c2ccccc2)cc1`, the AC50 under setting [1] was 0.251 µM [rising, full curve, poor fit].
The same measure, in the same setting: the figure for `COC(=O)CCC(=O)OC1(C)C(=O)C2=COC(c3ccc(OC)cc3)=CC2=C(Br)C1=O` (stereo not given) is 31.6 µM [rising, single point].
Same read-out and setting: the value for `CC(=O)Nc1ccc(NC(=O)c2nc(S(=O)(=O)Cc3cccc(C)c3)ncc2Cl)cc1` was 5.01 µM [falling, full curve, poor fit].
On the same count and under the same terms, the figure for `Oc1cc(OCc2ccccc2)ccc1-c1[nH]ncc1-c1ccccc1` is 10 µM [rising, partial curve]; for `Cc1cc(C(F)(F)F)nn1CC(=O)NNC(=S)Nc1ccc(F)cc1` it is 29.1 µM [falling, partial curve, poor fit].
As for `CCOc1ccc(C(=O)NC(=S)N(Cc2ccccc2)Cc2ccccc2)cc1`, the AC50 under setting [1] was 4.47 µM [falling, partial curve].
As to `COc1ccc(/C=N/NC(=O)Cc2n[nH]c(=O)[nH]c2=O)cc1`, the AC50 under setting [1] was 0.1 µM [falling, full curve, poor fit].
Take `CCOC(=O)c1nn(-c2ccccc2)c2nnc(Cc3ccc(Cl)cc3)c(=O)n12`: the AC50 under setting [1] was 8.2 µM [rising, partial curve, poor fit].
Still for that read-out and setting: the figure for `O=C(NC(=S)Nc1cccnc1)c1cc2ccccc2o1` is 0.184 µM [rising, full curve, poor fit]; for `Cc1csc(NC(=O)CCc2nc3ccccc3s2)n1` it is 25.9 µM [falling, partial curve, poor fit]; for `O=C(NC(=S)NNC(=O)c1ccccc1O)c1ccc([N+](=O)[O-])cc1` it is 6.31 µM [falling, partial curve, poor fit].
Same read-out and setting: the value for `COc1cccc(NC(=O)Nc2ccc(C)c(Cl)c2)c1` was 17.8 µM [falling, partial curve, poor fit].
On the same count and under the same terms, the value for `O=C(Nc1nc2ccccc2[nH]1)c1ccccc1` was 2.06 µM [falling, full curve].
In the case of `O=C(c1cc(-c2ccc(O)cc2)on1)N1CCCc2ccccc21`, the AC50 under setting [1] was 35.5 µM [falling, single point].
The same measure, in the same setting: the figure for `COC(=O)c1ccccc1NC(=O)c1ccc2nccnc2c1` is 22.4 µM [falling, single point].
Still for that read-out and setting: the figure for `COc1ccccc1CCNC(=O)C1CCN(C(=O)/C=C/c2ccccc2)CC1` is 10 µM [falling, single point].
On the same count and under the same terms, the value for `CC(C)c1ccccc1NC(=S)NCc1nc2ccccc2[nH]1` was 10 µM [falling, partial curve]; that for `CSC1=NC(=O)/C(=C/c2ccc(SC)cc2)S1` was 35.5 µM [falling, single point]; that for `COc1ccc(OC)c(NC(=O)c2cc(-c3cc(C)cc(C)c3O)n[nH]2)c1` was 11.2 µM [falling, partial curve, poor fit].
In the case of `COc1ccccc1N1CCN(C(=O)c2ccc(S(=O)(=O)N3CCCCC3)cc2)CC1`, the AC50 under setting [1] was 23.1 µM [rising, single point].
Take `Cc1cc(C)n(C(=O)c2ccc(S(=O)(=O)NCC3CCCO3)cc2)n1` (stereo not given): the AC50 under setting [1] is 23.1 µM [falling, single point].
For `COc1ccccc1-c1cc(SC)c(C#N)c(=O)o1`, the AC50 under setting [1] is 29.1 µM [falling, single point].
Same read-out and setting: the figure for `CCCCn1c(N)c(N(CC(C)C)C(=O)C2CCN(S(=O)(=O)c3ccc(C)c(C)c3)CC2)c(=O)[nH]c1=O` is 3.55 µM [falling, partial curve]; for `CON(c1nc(Cl)nc(N(C)C)n1)S(=O)(=O)c1ccc(C)cc1` it is 15.8 µM [falling, partial curve, poor fit]; for `COc1cc(NC(=O)c2cc3nc(C)cc(C)n3n2)c(OC)cc1Cl` it is 0.517 µM [rising, full curve, poor fit].
On the same count and under the same terms, the figure for `O=C(Nc1cccc(F)c1)N1CCC(c2ccccc2)CC1` is 12.6 µM [falling, partial curve, poor fit]; for `CC(=O)Oc1ccc(C(=O)[C@H]2[C@H]3C(=O)N(c4ccc(C)cc4C)C(=O)[C@H]3[C@@H]3C=CC=NN32)cc1` it is 0.708 µM [rising, partial curve, poor fit].
Regarding `CC(=O)c1c(C)[nH]c(C(=O)OCc2cccc(Cl)c2)c1C`, the AC50 under setting [1] was 7.08 µM [rising, full curve, poor fit].
Still for that read-out and setting: the value for `CC(C)NC(=O)/C(C#N)=C\c1ccc(N(C)C)o1` was 2.82 µM [rising, partial curve, poor fit]; that for `COc1ccc(C(=O)/C=C/c2cc(C(=O)O)cc3c2OCOC3)c(O)c1` was 1.12 µM [falling, single point]; that for `COC(=O)[C@@H](NC(=O)O[C@@H]1C(=O)c2cc(Br)ccc2O[C@H]1c1cccc(OC)c1)C(C)C` was 1.84 µM [rising, partial curve].
Still for that read-out and setting: the value for `N/C(=N\OC(=O)Nc1ccc(Cl)c(Cl)c1)c1ncc(C(F)(F)F)cc1Cl` was 0.651 µM [rising, partial curve, poor fit].
Still for that read-out and setting: the value for `CCN(CC)C(=O)c1sc2nc(-c3ccc(OC)cc3)cn2c1C` was 8.91 µM [falling, partial curve, poor fit].
In the case of `COc1ccc(-c2csc3nc(-c4cccnc4)nc(N4CCC(C(N)=O)CC4)c23)cc1OC`, the AC50 under setting [2] was 18.4 µM [falling, partial curve, poor fit].
Take `Cc1ccc(NC(=O)CSCc2ccco2)cc1`: under setting [1], the concentration at half-maximal activity (AC50) was 1.58 µM [rising, partial curve, poor fit].
Still for that read-out and setting: the figure for `O=c1oc2cc(O)ccc2cc1-c1nc2c(s1)CCc1ccccc1-2` is 0.291 µM [falling, full curve]; for `COc1ccccc1NC(=O)COC(=O)CNC(=O)C1CCCCC1` it is 14.6 µM [rising, partial curve].
Take `O=C(CNCc1ccccc1)Nc1ccc(Cl)cc1`: the AC50 under setting [1] was 12.6 µM [falling, single point].
Same read-out and setting: the figure for `CC1CN(CC(=O)Nc2cccc(C(=O)Nc3cccc(C(F)(F)F)c3)c2)CC(C)O1` (stereo not given) is 20.6 µM [falling, single point]; for `Cc1cccn2c(=O)c3cc(C(=O)NCCN4CCOCC4)n(C)c3nc12` it is 7.08 µM [rising, partial curve, poor fit].
`O/N=C1\CCCc2ccc3ccccc3c21`: the AC50 under setting [2] is 20 µM [rising, partial curve, poor fit].
As for `O=c1oc(-c2ccccc2)nc2ccsc12`, under setting [1], the AC50 was 4.11 µM [falling, full curve].
Turning to `O=C(COc1ncnc2ccccc12)Nc1ccc(S(=O)(=O)N2CCOCC2)cc1`, under setting [1], the AC50 is 6.31 µM [rising, single point].
Take `COc1ccc(CCN2CC34C=CC(O3)C(C(=O)NCc3ccccc3)C4C2=O)cc1OC` (stereo not given): under setting [1], the AC50 is 14.1 µM [rising, partial curve, poor fit].
Same read-out and setting: the value for `Cc1cccc(NC(=O)C2CCC(CNC(=O)[C@@H]3Cc4ccccc4CN3)CC2)c1` (stereo not given in full) was 10 µM [falling, partial curve]; that for `Cc1cnc(C(=O)NCCc2ccc(Cl)cc2)cn1` was 15.8 µM [rising, partial curve, poor fit].
In the case of `COc1ccc(/C=N/NC(=O)C(=O)N2CCCCCC2)cc1[N+](=O)[O-]`, the AC50 under setting [2] was 15.8 µM [falling, partial curve, poor fit].
Take `Clc1cccc(-c2nc(-c3ccc(-c4nn[nH]n4)cc3)no2)c1`: the AC50 under setting [1] is 29.1 µM [falling, single point].
On the same count and under the same terms, the value for `O=C(CC(SCCO)c1ccc2c(c1)OCO2)c1ccco1` (stereo not given) was 4.11 µM [falling, single point]; that for `CN(C)CCCn1c2c(c(SCC(=O)Nc3cccc4ccccc34)nc1=O)CCCC2` was 16.4 µM [falling, partial curve, poor fit]; that for `CC(SC1=NCCS1)C(=O)Nc1nnc(-c2ccc(Cl)cc2)s1` (stereo not given) was 6.51 µM [rising, partial curve].
For the compound `CC1CCCCN1CCNC(=O)c1ccc2c(c1)N(Cc1cccc(Cl)c1)C(=O)c1ccccc1S2=O` (stereo not given), under setting [1], the AC50 was 10 µM [falling, partial curve].
The same measure, in the same setting: the figure for `CC1CCc2c(sc3c2C2=NS(=O)(=O)CCN2C=N3)C1` (stereo not given) is 6.51 µM [rising, single point]; for `O=C(NCCc1cccs1)c1cccs1` it is 14.1 µM [falling, partial curve].
`Cc1ccc(Nc2nc(C)cs2)cc1`: the AC50 runs as follows: under setting [1], 6.31 µM [rising, single point]; under setting [2], 14.1 µM [falling, partial curve, poor fit].
